# Data published in PubChem BioAssay AID588449 (Broad Institute, 2011).
# The shares of active, inactive and inconclusive entries below differ from those in the screen. Activity calls are given as the source filed them.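 Rule for the calls: active = inhibitors whose fitted AC50 is no more than ten times their highest valid tested dose; inconclusive = flat fit with 30 to 70% inhibition, or poor fit; inactive = the rest.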
# Biological target: Dual specificity tyrosine-phosphorylation-regulated kinase 1A (Rattus norvegicus) (UniProt Q63470)
# Test: Dyrk1A kinase inhibitors, NFAT signaling, dose response, biochemical, cherry-pick, plate reader, 2124-03 (AID 588449)
# Settings: recombinant Dyrk1A, ADP-Glo luminescence, NFATc1 peptide; at 12 µM (top of the series)
row,Structure (SMILES),"activity change, negative = inhibition"
1,Clc1cc(Cl)cc(CNc2nccc(-c3ccc4c(c3)OCO4)n2)c1,inconclusive: -60.4%
2,Clc1ccc(CNc2ncncc2-c2ccc3c(c2)OCO3)cc1Cl,inconclusive: -67.3%
3,c1csc(CNc2ncnc3ccc(-c4ccc5c(c4)OCO5)cc23)n1,inactive: -10.2%
4,Cn1ccc2cc(-c3ccc4ncnc(NCc5ccc6c(c5)OCO6)c4c3)ccc21,inactive: -5.37%
5,Cn1ccc2cc(-c3ccc4ncnc(NCc5cccc(F)c5)c4c3)ccc21,inactive: 0.354%
